Values from PubChem BioAssay AID1671195 (Yale University, 2021).
This is one part, drawn at random, of about 22,000 reagents tested. About 1,510 of all reagents (6.9%) were called active. 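Active includes knockdowns raising or lowering LDL uptake; positive z-scores mean more uptake, negative mean less.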

Test: 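Regulators of LDL receptor activity judged by labelled LDL uptake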 (primary screen)
System: human Huh7 hepatoma cells
Knock-down reagent: siRNA pool against human genes, 18 nM
Duration: about 2 to 2.5 days of knockdown, then 8 h LDL uptake
Treatment: DiI-labelled LDL at 30 µg/ml for 8 h, in lipoprotein-deficient serum medium
Measured: 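Per-cell DiI-LDL intensity by automated imaging; well means scaled to the plate median and given as a robust z-score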
Scale: robust z-score: higher = more LDL uptake after knockdown
Hit rule: 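a gene counts as active if at least two replicate z-scores exceed ±2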

LOC387864 (retired record) [SID442903427] | robust z-score, replicate 1: -1.11; robust z-score, replicate 2: -1.58; robust z-score, replicate 3: -1.19; Call: inactive
SEMA3C [SID442888923] | robust z-score, replicate 1: 1; robust z-score, replicate 2: 0.796; robust z-score, replicate 3: 0.117; Call: inactive
HERPUD2 [SID442891304] | robust z-score, replicate 1: 0.589; robust z-score, replicate 2: 0.0457; robust z-score, replicate 3: 0.274; Call: inactive
CALHM2 [SID442895477] | robust z-score, replicate 1: 0.986; robust z-score, replicate 2: 0.284; robust z-score, replicate 3: -1.79; Call: inactive
PIK3IP1 [SID442900302] | robust z-score, replicate 1: -0.38; robust z-score, replicate 2: -0.908; robust z-score, replicate 3: -0.942; Call: inactive
SLC28A2 [SID442900640] | robust z-score, replicate 1: -0.81; robust z-score, replicate 2: -0.966; robust z-score, replicate 3: -0.584; Call: inactive
CXXC1 [SID442886178] | robust z-score, replicate 1: 1.31; robust z-score, replicate 2: 1.45; robust z-score, replicate 3: 0.957; Call: inactive

A stretch taken from the entries so far, as a working copy:
CALHM2 [SID442895477] | robust z-score, replicate 1: 0.986; robust z-score, replicate 2: 0.284; robust z-score, replicate 3: -1.79; Call: inactive
PIK3IP1 [SID442900302] | robust z-score, replicate 1: -0.38; robust z-score, replicate 2: -0.908; robust z-score, replicate 3: -0.942; Call: inactive

More entries follow.
CHRNA2 [SID442902702] | robust z-score, replicate 1: -1.13; robust z-score, replicate 2: -1.21; robust z-score, replicate 3: -1.04; Call: inactive
TLNRD1 [SID442898100] | robust z-score, replicate 1: -0.891; robust z-score, replicate 2: -0.495; robust z-score, replicate 3: 0.00303; Call: inactive
WFDC11 [SID442895979] | robust z-score, replicate 1: -0.283; robust z-score, replicate 2: -0.133; robust z-score, replicate 3: -0.262; Call: inactive
ARPC5L [SID442891096] | robust z-score, replicate 1: -0.166; robust z-score, replicate 2: 0.727; robust z-score, replicate 3: 0.435; Call: inactive
COQ2 [SID442899883] | robust z-score, replicate 1: -0.801; robust z-score, replicate 2: -0.621; robust z-score, replicate 3: -0.625; Call: inactive
